Data from the supplement of paper PMC12067093, “Discovery and optimisation of a covalent ligand for TRIM25 and its application to targeted protein ubiquitination” (Chemical Science, 2025).
The other results are listed elsewhere or left out.

Amino acid sequences for entries named in this document (tags omitted). A change or cut given only in a name is not applied to a line headed by its entry.
UniProt P49327, whole entry, looked up: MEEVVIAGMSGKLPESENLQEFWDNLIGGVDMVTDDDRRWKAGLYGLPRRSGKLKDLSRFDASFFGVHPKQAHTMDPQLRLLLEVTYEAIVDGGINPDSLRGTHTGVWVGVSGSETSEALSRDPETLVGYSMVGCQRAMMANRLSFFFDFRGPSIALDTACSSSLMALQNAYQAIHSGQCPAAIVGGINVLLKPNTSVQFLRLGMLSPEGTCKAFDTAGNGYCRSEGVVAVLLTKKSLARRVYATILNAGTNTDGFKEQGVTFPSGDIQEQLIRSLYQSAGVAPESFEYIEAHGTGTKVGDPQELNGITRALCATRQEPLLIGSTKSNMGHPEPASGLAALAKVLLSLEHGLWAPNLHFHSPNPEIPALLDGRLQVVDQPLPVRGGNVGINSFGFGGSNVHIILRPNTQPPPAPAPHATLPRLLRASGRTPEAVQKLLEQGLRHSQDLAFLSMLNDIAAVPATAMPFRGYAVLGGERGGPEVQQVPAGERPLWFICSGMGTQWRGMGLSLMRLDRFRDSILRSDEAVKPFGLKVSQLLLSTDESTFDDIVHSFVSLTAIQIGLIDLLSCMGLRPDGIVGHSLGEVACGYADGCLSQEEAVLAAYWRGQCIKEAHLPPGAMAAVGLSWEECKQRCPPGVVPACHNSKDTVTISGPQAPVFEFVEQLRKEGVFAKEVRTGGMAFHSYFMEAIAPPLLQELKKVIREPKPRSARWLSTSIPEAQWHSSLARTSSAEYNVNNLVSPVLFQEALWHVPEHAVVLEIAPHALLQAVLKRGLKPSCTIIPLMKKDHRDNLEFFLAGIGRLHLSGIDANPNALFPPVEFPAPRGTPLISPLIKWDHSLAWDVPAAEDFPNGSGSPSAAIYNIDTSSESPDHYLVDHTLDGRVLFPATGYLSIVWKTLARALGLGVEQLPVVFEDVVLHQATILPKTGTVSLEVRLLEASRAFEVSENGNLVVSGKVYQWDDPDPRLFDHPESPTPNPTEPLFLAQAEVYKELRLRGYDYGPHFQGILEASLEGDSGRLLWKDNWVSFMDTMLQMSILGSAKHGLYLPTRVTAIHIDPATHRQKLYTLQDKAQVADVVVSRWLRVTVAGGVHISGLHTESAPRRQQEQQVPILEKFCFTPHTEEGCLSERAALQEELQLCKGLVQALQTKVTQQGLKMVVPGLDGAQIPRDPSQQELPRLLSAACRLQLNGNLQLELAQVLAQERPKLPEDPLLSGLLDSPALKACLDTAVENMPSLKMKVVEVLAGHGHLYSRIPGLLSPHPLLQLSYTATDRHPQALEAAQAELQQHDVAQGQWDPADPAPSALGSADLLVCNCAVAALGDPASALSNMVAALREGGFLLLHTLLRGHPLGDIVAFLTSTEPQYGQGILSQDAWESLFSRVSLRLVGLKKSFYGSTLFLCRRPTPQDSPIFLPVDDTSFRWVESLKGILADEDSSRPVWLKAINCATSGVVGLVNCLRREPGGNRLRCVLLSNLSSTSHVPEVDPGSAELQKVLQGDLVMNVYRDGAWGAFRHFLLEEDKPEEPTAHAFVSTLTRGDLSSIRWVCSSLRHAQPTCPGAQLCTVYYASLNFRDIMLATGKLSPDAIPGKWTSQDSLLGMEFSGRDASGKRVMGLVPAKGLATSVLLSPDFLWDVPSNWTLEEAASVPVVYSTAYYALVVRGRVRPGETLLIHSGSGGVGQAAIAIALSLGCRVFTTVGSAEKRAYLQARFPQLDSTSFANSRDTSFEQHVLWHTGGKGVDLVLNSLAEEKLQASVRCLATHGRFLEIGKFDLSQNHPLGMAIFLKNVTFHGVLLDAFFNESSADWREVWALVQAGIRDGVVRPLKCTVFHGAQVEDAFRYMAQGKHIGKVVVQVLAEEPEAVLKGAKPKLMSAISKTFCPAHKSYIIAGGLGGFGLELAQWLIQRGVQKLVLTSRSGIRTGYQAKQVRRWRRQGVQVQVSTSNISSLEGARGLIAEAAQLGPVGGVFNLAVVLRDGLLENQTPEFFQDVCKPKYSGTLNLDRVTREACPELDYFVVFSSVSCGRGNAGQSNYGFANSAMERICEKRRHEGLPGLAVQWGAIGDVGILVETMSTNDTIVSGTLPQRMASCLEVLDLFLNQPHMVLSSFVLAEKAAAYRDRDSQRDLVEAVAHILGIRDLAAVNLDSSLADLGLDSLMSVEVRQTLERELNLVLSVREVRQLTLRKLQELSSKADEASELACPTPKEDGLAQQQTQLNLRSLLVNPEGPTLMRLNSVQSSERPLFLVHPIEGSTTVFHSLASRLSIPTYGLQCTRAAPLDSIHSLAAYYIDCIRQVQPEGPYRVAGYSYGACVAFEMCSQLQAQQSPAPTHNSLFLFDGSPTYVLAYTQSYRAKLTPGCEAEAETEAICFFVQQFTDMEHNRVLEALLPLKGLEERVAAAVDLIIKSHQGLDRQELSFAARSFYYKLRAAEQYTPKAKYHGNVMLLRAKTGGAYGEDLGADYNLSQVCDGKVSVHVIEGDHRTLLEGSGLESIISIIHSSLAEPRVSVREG
UniProt Q5W0V3: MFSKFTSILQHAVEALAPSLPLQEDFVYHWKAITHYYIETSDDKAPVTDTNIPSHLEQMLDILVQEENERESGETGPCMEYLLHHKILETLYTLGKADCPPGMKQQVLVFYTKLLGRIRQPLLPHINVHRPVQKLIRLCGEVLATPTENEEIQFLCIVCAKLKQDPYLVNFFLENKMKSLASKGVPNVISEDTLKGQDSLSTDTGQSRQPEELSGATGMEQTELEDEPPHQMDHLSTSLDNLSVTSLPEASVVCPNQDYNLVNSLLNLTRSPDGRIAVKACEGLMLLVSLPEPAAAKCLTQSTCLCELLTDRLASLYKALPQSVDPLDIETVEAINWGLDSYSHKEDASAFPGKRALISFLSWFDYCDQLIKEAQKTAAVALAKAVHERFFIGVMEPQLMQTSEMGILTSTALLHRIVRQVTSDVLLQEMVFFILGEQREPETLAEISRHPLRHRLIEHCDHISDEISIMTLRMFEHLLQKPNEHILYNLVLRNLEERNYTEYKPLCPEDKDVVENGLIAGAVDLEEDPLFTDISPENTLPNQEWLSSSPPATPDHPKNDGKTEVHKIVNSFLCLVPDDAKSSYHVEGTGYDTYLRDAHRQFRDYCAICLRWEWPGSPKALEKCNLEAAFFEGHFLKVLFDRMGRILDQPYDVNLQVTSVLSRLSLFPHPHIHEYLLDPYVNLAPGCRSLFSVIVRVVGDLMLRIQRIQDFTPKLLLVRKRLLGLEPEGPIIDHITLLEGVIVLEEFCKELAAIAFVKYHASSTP
UniProt Q658Y4: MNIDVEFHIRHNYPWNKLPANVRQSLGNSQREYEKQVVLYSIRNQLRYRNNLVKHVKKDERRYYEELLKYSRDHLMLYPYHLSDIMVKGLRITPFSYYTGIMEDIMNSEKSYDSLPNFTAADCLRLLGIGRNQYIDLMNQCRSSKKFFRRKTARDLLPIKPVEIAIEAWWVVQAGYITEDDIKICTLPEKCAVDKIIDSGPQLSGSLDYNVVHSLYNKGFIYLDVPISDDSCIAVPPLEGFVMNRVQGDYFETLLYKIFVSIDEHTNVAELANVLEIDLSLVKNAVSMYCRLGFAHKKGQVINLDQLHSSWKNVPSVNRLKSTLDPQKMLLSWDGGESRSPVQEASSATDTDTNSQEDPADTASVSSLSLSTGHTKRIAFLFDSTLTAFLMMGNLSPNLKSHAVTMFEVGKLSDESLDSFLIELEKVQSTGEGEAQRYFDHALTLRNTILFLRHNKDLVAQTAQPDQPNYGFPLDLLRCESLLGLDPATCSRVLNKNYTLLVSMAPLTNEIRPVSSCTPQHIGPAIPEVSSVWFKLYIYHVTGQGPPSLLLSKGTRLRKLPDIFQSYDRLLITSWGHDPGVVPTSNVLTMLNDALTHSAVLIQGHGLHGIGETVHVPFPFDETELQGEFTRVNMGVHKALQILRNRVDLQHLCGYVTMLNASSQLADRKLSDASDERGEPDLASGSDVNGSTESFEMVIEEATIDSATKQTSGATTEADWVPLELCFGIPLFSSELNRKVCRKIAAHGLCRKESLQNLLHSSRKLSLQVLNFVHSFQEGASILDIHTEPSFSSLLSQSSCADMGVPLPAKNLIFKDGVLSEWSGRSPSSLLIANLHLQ
UniProt Q8N531: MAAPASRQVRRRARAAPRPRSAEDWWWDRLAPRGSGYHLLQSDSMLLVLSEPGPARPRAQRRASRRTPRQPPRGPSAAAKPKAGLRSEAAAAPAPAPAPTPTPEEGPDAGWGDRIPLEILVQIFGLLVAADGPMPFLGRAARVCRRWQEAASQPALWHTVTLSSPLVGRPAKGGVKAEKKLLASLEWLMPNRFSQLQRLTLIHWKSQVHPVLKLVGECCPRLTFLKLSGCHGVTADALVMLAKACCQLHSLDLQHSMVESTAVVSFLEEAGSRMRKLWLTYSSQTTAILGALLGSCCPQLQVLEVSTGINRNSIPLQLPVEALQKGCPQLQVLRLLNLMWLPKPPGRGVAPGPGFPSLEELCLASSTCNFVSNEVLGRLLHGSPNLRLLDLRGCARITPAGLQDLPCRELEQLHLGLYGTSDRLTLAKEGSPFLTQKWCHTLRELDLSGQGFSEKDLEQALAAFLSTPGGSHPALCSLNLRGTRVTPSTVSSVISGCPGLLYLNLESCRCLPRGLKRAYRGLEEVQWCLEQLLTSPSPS
UniProt Q8NEZ5: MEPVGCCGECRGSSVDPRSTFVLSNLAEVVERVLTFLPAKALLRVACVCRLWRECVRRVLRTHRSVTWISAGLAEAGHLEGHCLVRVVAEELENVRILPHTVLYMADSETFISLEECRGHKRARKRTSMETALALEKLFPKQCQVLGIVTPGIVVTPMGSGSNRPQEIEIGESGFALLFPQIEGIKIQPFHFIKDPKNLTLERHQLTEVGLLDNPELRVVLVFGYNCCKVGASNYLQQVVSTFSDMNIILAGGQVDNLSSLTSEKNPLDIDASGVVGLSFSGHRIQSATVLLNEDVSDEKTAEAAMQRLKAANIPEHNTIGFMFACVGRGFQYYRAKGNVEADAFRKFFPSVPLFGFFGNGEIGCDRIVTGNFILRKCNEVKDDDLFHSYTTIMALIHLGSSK
UniProt P14324: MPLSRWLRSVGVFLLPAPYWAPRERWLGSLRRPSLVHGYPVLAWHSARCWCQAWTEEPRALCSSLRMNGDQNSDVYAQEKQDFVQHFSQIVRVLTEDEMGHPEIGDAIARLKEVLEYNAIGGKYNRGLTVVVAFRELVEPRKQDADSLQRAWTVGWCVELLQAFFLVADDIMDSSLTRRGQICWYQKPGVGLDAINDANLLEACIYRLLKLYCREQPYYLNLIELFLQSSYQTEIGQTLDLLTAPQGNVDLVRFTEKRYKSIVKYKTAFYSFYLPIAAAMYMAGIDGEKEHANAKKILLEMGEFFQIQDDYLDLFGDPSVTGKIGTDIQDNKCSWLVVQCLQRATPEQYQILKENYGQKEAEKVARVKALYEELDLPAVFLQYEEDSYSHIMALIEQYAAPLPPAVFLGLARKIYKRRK
UniProt P39748, whole entry, looked up: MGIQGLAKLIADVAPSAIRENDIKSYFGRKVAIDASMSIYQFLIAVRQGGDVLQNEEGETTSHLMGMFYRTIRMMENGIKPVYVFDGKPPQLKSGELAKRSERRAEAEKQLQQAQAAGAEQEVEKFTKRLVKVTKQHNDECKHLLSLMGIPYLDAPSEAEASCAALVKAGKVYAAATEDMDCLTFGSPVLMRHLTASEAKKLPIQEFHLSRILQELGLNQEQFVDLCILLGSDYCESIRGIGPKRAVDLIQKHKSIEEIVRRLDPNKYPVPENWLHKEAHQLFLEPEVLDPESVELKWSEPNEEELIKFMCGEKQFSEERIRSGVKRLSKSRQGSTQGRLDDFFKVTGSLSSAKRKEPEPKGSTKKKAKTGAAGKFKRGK
UniProt Q9NSD9: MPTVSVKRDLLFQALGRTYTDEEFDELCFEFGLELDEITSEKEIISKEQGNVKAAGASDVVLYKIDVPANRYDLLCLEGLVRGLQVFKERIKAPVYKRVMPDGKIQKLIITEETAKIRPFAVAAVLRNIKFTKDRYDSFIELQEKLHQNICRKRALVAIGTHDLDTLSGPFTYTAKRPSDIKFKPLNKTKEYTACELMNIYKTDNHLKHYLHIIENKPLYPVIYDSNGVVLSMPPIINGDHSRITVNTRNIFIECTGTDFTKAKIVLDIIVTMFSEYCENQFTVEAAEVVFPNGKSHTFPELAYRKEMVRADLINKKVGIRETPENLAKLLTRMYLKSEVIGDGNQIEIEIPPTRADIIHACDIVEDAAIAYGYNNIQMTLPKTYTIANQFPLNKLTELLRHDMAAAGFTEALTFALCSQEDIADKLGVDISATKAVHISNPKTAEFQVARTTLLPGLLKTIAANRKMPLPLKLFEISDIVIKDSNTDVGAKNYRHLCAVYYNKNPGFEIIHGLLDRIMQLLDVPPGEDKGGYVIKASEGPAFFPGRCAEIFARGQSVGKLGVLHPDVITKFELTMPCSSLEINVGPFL

Each target was assayed with CC1Cc2ccccc2N1C(=O)C1CCCN(C1)C(=O)CCl (mixture of isomers) [TRIM25 ligand 11 (diastereomer mixture)] (assay: probe-labelled cysteine peptide fold change vs DMSO (competition) (log2 fold change); higher = less target engagement (more negative = stronger competition)). Conditions: 10 µM; THP-1; incubation time: 4 h.
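Also: competitive chemoproteomic profiling in live THP-1 cells with an iodoacetamide desthiobiotin (IA-DTB) probe, comparing probe-labelled peptide intensities in compound-treated cells against DMSO-treated controls.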

Target | probe-labelled cysteine peptide fold change
FBXL12_Q9NXK8_155_QQDPTVLPLLECIVLDR (UniProt Q9NXK8) | 0.171
FBRS_Q9HAH7_87_WCAMHVR (UniProt Q9HAH7) | -0.0949
FBN2_P35556_1162_NCMDIDECERNPLLCR (UniProt P35556) | -0.0599
FASN_P49327_779_GLKPSCTIIPLMK (UniProt P49327) | -0.191
FBN2_P35556_941_CELDTACPR (UniProt P35556) | 0.213
FARP2_O94887_155_LTCADTTAALLTSHLLQSEIGDYDETLDREHLK (UniProt O94887) | 0.112
FBL_P22087_268_ANCIDSTASAEAVFASEVK (UniProt P22087) | -0.0913
FEM1B_Q9UK73_409_APDIECVLR (UniProt Q9UK73) | -0.111
FBN2_P35556_1812_AVDIDECK (UniProt P35556) | -0.143
FAM160B1_Q5W0V3_460_LIEHCDHISDEISIMTLR (UniProt Q5W0V3) | -0.0338
FAM98B_Q52LJ0_295_TACAINK (UniProt Q52LJ0) | 0.0196
FBL_P22087_99_NVMVEPHRHEGVFICR (UniProt P22087) | -0.0639
FAM208A_Q9UK61_830_DYEQPTCAK (UniProt Q9UK61) | 0.049
FASN_P49327_1403_KSFYGSTLFLCR (UniProt P49327) | -0.118
FAM208A_Q9UK61_761_QQQDTCNSGIADIHR (UniProt Q9UK61) | 0.000862
FAM91A1_Q658Y4_479_CESLLGLDPATCSR (UniProt Q658Y4) | -0.0221
FAM129A_Q9BZQ8_41_QYSVAFCNHVR (UniProt Q9BZQ8) | -0.0808
FAM208A_Q9UK61_538_IAQFLQFSLIQCR (UniProt Q9UK61) | 0.17
FAM76B_Q5HYJ3_60_CAQNVK (UniProt Q5HYJ3) | -0.00343
FBXL6_Q8N531_407_ITPAGLQDLPCR (UniProt Q8N531) | -0.0524

Target | probe-labelled cysteine peptide fold change
FBXO22_Q8NEZ5_378_CNEVKDDDLFHSYTTIMALIHLGSSK (UniProt Q8NEZ5) | 0.0477
FAM136A_Q96C01_57_CHVPLAQAQALVTSELEK (UniProt Q96C01) | -0.121
FCHSD2_O94868_260_TELETCQAVQNTFQFLLENSSK (UniProt O94868) | 0.0893
FEM1B_Q9UK73_244_ADVVELLLSHADCDRR (UniProt Q9UK73) | -0.164
FAM208B_Q5VWN6_847_CSADSLLETNEISR (UniProt Q5VWN6) | -0.156
FAM136A_Q96C01_53_QVHQCIER (UniProt Q96C01) | -0.0424
FDPS_P14324_183_RGQICWYQKPGVGLDAINDANLLEACIYR (UniProt P14324) | -0.335
FEN1_P39748_141_QHNDECK (UniProt P39748) | -0.134
FCHO2_Q0JRZ9_86_LANCHLDLVR (UniProt Q0JRZ9) | 0.0991
FAM98C_Q17RN3_287_ADLSCLVPATSVAVR (UniProt Q17RN3) | 0.0695
FASN_P49327_779_RGLKPSCTIIPLMK (UniProt P49327) | -0.212
FASN_P49327_212_LGMLSPEGTCK (UniProt P49327) | -0.0566
FASN_P49327_1141_AALQEELQLCK (UniProt P49327) | 0.0967
FASN_P49327_1558+1564_HAQPTCPGAQLCTVYYASLNFR (UniProt P49327) | 0.0665
FAM208A_Q9UK61_734_TSNLSENCHLYEESPQPIGSLGHDADLRR (UniProt Q9UK61) | 0.0803
FAM160B1_Q5W0V3_624_CNLEAAFFEGHFLK (UniProt Q5W0V3) | 0.125
FARSB_Q9NSD9_151_LHQNICR (UniProt Q9NSD9) | -0.108
FBXL17_Q9UF56_342_CLSASLVCK (UniProt Q9UF56) | -0.0107
FANCD2_Q9BXW9_310_LDLQHCVLPSR (UniProt Q9BXW9) | -0.0442

Same assay, conditions: 50 µM; THP-1; incubation time: 4 h

Target | probe-labelled cysteine peptide fold change
FBXL12_Q9NXK8_155_QQDPTVLPLLECIVLDR (UniProt Q9NXK8) | 0.18
FBRS_Q9HAH7_87_WCAMHVR (UniProt Q9HAH7) | 0.148
FBN2_P35556_1162_NCMDIDECERNPLLCR (UniProt P35556) | 0.136
FASN_P49327_779_GLKPSCTIIPLMK (UniProt P49327) | -0.232
FBN2_P35556_941_CELDTACPR (UniProt P35556) | 0.26
FARP2_O94887_155_LTCADTTAALLTSHLLQSEIGDYDETLDREHLK (UniProt O94887) | 0.151
FBL_P22087_268_ANCIDSTASAEAVFASEVK (UniProt P22087) | 0.287
FEM1B_Q9UK73_409_APDIECVLR (UniProt Q9UK73) | -0.27
FBN2_P35556_1812_AVDIDECK (UniProt P35556) | 0.0853
FAM160B1_Q5W0V3_460_LIEHCDHISDEISIMTLR (UniProt Q5W0V3) | -0.242
FAM98B_Q52LJ0_295_TACAINK (UniProt Q52LJ0) | -0.162
FBL_P22087_99_NVMVEPHRHEGVFICR (UniProt P22087) | -0.088
FAM208A_Q9UK61_830_DYEQPTCAK (UniProt Q9UK61) | -0.181
FASN_P49327_1403_KSFYGSTLFLCR (UniProt P49327) | 0.0368
FAM208A_Q9UK61_761_QQQDTCNSGIADIHR (UniProt Q9UK61) | -0.184
FAM91A1_Q658Y4_479_CESLLGLDPATCSR (UniProt Q658Y4) | 0.0589
FAM129A_Q9BZQ8_41_QYSVAFCNHVR (UniProt Q9BZQ8) | -0.117
FAM208A_Q9UK61_538_IAQFLQFSLIQCR (UniProt Q9UK61) | 0.171
FAM76B_Q5HYJ3_60_CAQNVK (UniProt Q5HYJ3) | 0.104
FBXL6_Q8N531_407_ITPAGLQDLPCR (UniProt Q8N531) | -0.0194

Target | probe-labelled cysteine peptide fold change
FBXO22_Q8NEZ5_378_CNEVKDDDLFHSYTTIMALIHLGSSK (UniProt Q8NEZ5) | 0.0518
FAM136A_Q96C01_57_CHVPLAQAQALVTSELEK (UniProt Q96C01) | 0.0522
FCHSD2_O94868_260_TELETCQAVQNTFQFLLENSSK (UniProt O94868) | 0.26
FEM1B_Q9UK73_244_ADVVELLLSHADCDRR (UniProt Q9UK73) | -0.345
FAM208B_Q5VWN6_847_CSADSLLETNEISR (UniProt Q5VWN6) | -0.0525
FAM136A_Q96C01_53_QVHQCIER (UniProt Q96C01) | 0.0164
FDPS_P14324_183_RGQICWYQKPGVGLDAINDANLLEACIYR (UniProt P14324) | 0.0351
FEN1_P39748_141_QHNDECK (UniProt P39748) | -0.124
FCHO2_Q0JRZ9_86_LANCHLDLVR (UniProt Q0JRZ9) | 0.191
FAM98C_Q17RN3_287_ADLSCLVPATSVAVR (UniProt Q17RN3) | 0.113
FASN_P49327_779_RGLKPSCTIIPLMK (UniProt P49327) | -0.239
FASN_P49327_212_LGMLSPEGTCK (UniProt P49327) | -0.123
FASN_P49327_1141_AALQEELQLCK (UniProt P49327) | -0.02
FASN_P49327_1558+1564_HAQPTCPGAQLCTVYYASLNFR (UniProt P49327) | -0.3
FAM208A_Q9UK61_734_TSNLSENCHLYEESPQPIGSLGHDADLRR (UniProt Q9UK61) | -0.0546
FAM160B1_Q5W0V3_624_CNLEAAFFEGHFLK (UniProt Q5W0V3) | 0.181
FARSB_Q9NSD9_151_LHQNICR (UniProt Q9NSD9) | -0.0522
FBXL17_Q9UF56_342_CLSASLVCK (UniProt Q9UF56) | 0.0876
FANCD2_Q9BXW9_310_LDLQHCVLPSR (UniProt Q9BXW9) | -0.0094
